Paper PMC5520689
Results are given in words; binding and its absence hold for the method and conditions named. Binding seen in cells or lysates may run through a third protein. Sequences can lack the tags named with a protein.

Target: T1, STAU1 (human (endogenous in the paper's human cell lines; line not stated for this experiment)), O95793
T1 chain: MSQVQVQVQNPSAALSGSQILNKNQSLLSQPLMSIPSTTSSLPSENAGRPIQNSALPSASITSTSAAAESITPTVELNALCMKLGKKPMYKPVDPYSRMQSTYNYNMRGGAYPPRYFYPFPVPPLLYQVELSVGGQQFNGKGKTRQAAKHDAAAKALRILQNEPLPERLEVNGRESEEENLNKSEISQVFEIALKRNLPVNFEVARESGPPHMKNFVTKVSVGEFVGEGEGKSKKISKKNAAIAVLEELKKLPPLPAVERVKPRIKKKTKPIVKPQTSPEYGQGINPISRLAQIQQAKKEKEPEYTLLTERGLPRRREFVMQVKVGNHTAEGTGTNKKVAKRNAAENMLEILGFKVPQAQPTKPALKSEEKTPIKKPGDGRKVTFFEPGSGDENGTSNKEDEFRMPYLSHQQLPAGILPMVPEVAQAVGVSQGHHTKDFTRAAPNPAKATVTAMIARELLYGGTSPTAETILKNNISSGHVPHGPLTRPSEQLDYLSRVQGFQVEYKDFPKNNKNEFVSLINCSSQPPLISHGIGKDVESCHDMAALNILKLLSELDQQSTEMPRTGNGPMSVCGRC
Test: co-IP; co-immunoprecipitation assay (Supplementary Figure S16); cell line, antibody and buffer not told in the main text
Settings: remark: other sources report otherwise

B1: ADAR1, P55265 1-1226 (enzyme)
chain: MNPRQGYSLSGYYTHPFQGYEHRQLRYQQPGPGSSPSSFLLKQIEFLKGQLPEAPVIGKQTPSLPPSLPGLRPRFPVLLASSTRGRQVDIRGVPRGVHLRSQGLQRGFQHPSPRGRSLPQRGVDCLSSHFQELSIYQDQEQRILKFLEELGEGKATTAHDLSGKLGTPKKEINRVLYSLAKKGKLQKEAGTPPLWKIAVSTQAWNQHSGVVRPDGHSQGAPNSDPSLEPEDRNSTSVSEDLLEPFIAVSAQAWNQHSGVVRPDSHSQGSPNSDPGLEPEDSNSTSALEDPLEFLDMAEIKEKICDYLFNVSDSSALNLAKNIGLTKARDINAVLIDMERQGDVYRQGTTPPIWHLTDKKRERMQIKRNTNSVPETAPAAIPETKRNAEFLTCNIPTSNASNNMVTTEKVENGQEPVIKLENRQEARPEPARLKPPVHYNGPSKAGYVDFENGQWATDDIPDDLNSIRAAPGEFRAIMEMPSFYSHGLPRCSPYKKLTECQLKNPISGLLEYAQFASQTCEFNMIEQSGPPHEPRFKFQVVINGREFPPAEAGSKKVAKQDAAMKAMTILLEEAKAKDSGKSEESSHYSTEKESEKTAESQTPTPSATSFFSGKSPVTTLLECMHKLGNSCEFRLLSKEGPAHEPKFQYCVAVGAQTFPSVSAPSKKVAKQMAAEEAMKALHGEATNSMASDNQPEGMISESLDNLESMMPNKVRKIGELVRYLNTNPVGGLLEYARSHGFAAEFKLVDQSGPPHEPKFVYQAKVGGRWFPAVCAHSKKQGKQEAADAALRVLIGENEKAERMGFTEVTPVTGASLRRTMLLLSRSPEAQPKTLPLTGSTFHDQIAMLSHRCFNTLTNSFQPSLLGRKILAAIIMKKDSEDMGVVVSLGTGNRCVKGDSLSLKGETVNDCHAEIISRRGFIRFLYSELMKYNSQTAKDSIFEPAKGGEKLQIKKTVSFHLYISTAPCGDGALFDKSCSDRAMESTESRHYPVFENPKQGKLRTKVENGEGTIPVESSDIVPTWDGIRLGERLRTMSCSDKILRWNVLGLQGALLTHFLQPIYLKSVTLGYLFSQGHLTRAICCRVTRDGSAFEDGLRHPFIVNHPKVGRVSIYDSKRQSGKTKETSVNWCLADGYDLEILDGTRGTVDGPRNELSRVSKKNIFLLFKKLCSFRYRRDLLRLSYGEAKKAARDYETAKNYFKKGLKDMGYGNWISKPQEEKNFYLCPV
- binding: no binding
